PubChem BioAssay AID1159584, Peter MacCallum Cancer Centre, 2016
The deposit covers about 18,000 reagents; this is a part drawn at random. The record does not give: the amount of reagent, the time to read-out.

Purpose: 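Knock-downs that harm CDH1-null cells more than parental MCF10A cells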 (primary screen)
Cell system: human MCF10A breast epithelial cells, parental and CDH1-null
Reagent: siRNA against human genes
Measurement: 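ATP luminescence (CellTiter-Glo) viability per line relative to mean mock wells over all plates, and the ratio of CDH1-null to parental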
Reading the numbers: CDH1-null / parental viability ratio: higher = CDH1-null cells survive relatively better than parental; CDH1-null viability vs mock: higher = more viable CDH1-null cells; parental viability vs mock: higher = more viable parental cells

| gene | CDH1-null / parental viability ratio | CDH1-null viability vs mock (fraction of mock) | parental viability vs mock (fraction of mock) |
| --- | --- | --- | --- |
| PLAC1 (placenta associated 1) | 0.77 | 0.64 | 0.83 |
| PIGF (phosphatidylinositol glycan anchor biosynthesis class F) | 1.16 | 0.96 | 0.83 |
| IP6K2 (inositol hexakisphosphate kinase 2) | 0.78 | 0.68 | 0.87 |
| TESK2 (testis associated actin remodelling kinase 2) | 1 | 0.76 | 0.76 |
| AMOT (angiomotin) | 0.92 | 0.88 | 0.96 |
| OR10H1 (olfactory receptor family 10 subfamily H member 1) | 0.78 | 0.57 | 0.73 |
| BAX (BCL2 associated X, apoptosis regulator) | 1.28 | 1.25 | 0.98 |
| INPPL1 (inositol polyphosphate phosphatase like 1) | 1.16 | 0.88 | 0.76 |
| ARID3C (AT-rich interaction domain 3C) | 0.87 | 0.84 | 0.97 |
| METTL1 (methyltransferase 1, tRNA methylguanosine) | 0.92 | 0.77 | 0.84 |
| SHPRH (SNF2 histone linker PHD RING helicase) | 0.88 | 0.83 | 0.94 |
| HNRNPCL1 (heterogeneous nuclear ribonucleoprotein C like 1) | 0.8 | 0.82 | 1.02 |
| DBH (dopamine beta-hydroxylase) | 0.86 | 0.82 | 0.95 |
| HABP4 (hyaluronan binding protein 4) | 0.89 | 0.91 | 1.02 |
| OSBPL6 (oxysterol binding protein like 6) | 1.04 | 0.94 | 0.9 |
| RUNX2 (RUNX family transcription factor 2) | 1.09 | 0.48 | 0.44 |
| GBP2 (guanylate binding protein 2) | 0.96 | 0.9 | 0.94 |
| ARHGEF37 (Rho guanine nucleotide exchange factor 37) | 1.13 | 0.96 | 0.85 |
| FABP7 (fatty acid binding protein 7) | 1.15 | 1.17 | 1.02 |
| FRK (fyn related Src family tyrosine kinase) | 0.99 | 1.04 | 1.05 |
| FAXC | 1.17 | 0.76 | 0.65 |
| RFK (riboflavin kinase) | 0.87 | 0.8 | 0.92 |
| CHRNA7 (cholinergic receptor nicotinic alpha 7 subunit) | 1.17 | 0.82 | 0.7 |
| SCAPER (S-phase cyclin A associated protein in the ER) | 1.05 | 1.02 | 0.97 |
| MIX23 (mitochondrial matrix import factor 23) | 0.79 | 0.58 | 0.73 |
| NDST3 (N-deacetylase and N-sulfotransferase 3) | 0.8 | 0.48 | 0.6 |
| POLR2J (RNA polymerase II subunit J) | 0.74 | 0.55 | 0.74 |
| GDF15 (growth differentiation factor 15) | 1.2 | 0.65 | 0.54 |
| PNMT (phenylethanolamine N-methyltransferase) | 0.75 | 0.6 | 0.8 |
| FGF12 (fibroblast growth factor 12) | 0.99 | 0.78 | 0.79 |
| ZNF79 (zinc finger protein 79) | 1.79 | 0.84 | 0.47 |
| PRSS3 (serine protease 3) | 1.16 | 0.96 | 0.83 |
| G6PD (glucose-6-phosphate dehydrogenase) | 0.81 | 0.68 | 0.84 |
| RPUSD4 (RNA pseudouridine synthase D4) | 1.13 | 0.77 | 0.68 |
| ABCB8 (ATP binding cassette subfamily B member 8) | 1.22 | 1.1 | 0.9 |
| B3GALT6 (beta-1,3-galactosyltransferase 6) | 0.87 | 0.82 | 0.94 |

Next part, starting with the last 6 of the part before.
| gene | CDH1-null / parental viability ratio | CDH1-null viability vs mock (fraction of mock) | parental viability vs mock (fraction of mock) |
| --- | --- | --- | --- |
| ZNF79 (zinc finger protein 79) | 1.79 | 0.84 | 0.47 |
| PRSS3 (serine protease 3) | 1.16 | 0.96 | 0.83 |
| G6PD (glucose-6-phosphate dehydrogenase) | 0.81 | 0.68 | 0.84 |
| RPUSD4 (RNA pseudouridine synthase D4) | 1.13 | 0.77 | 0.68 |
| ABCB8 (ATP binding cassette subfamily B member 8) | 1.22 | 1.1 | 0.9 |
| B3GALT6 (beta-1,3-galactosyltransferase 6) | 0.87 | 0.82 | 0.94 |
| LRR1 (leucine rich repeat protein 1) | 0.92 | 0.98 | 1.06 |
| PAK6 (p21 (RAC1) activated kinase 6) | 0.98 | 0.9 | 0.92 |
| SLC25A24 | 0.9 | 0.82 | 0.91 |
| CCDC17 (coiled-coil domain containing 17) | 1.12 | 0.74 | 0.66 |
| MCCC1 (methylcrotonyl-CoA carboxylase subunit 1) | 0.99 | 0.9 | 0.91 |
| SEZ6 (seizure related 6 homolog) | 0.61 | 0.51 | 0.84 |
| ST8SIA1 (ST8 alpha-N-acetyl-neuraminide alpha-2,8-sialyltransferase 1) | 1.28 | 0.82 | 0.64 |
| ARRDC5 (arrestin domain containing 5) | 1.16 | 0.94 | 0.81 |
| BTN2A3P (butyrophilin subfamily 2 member A3, pseudogene) | 1.46 | 1.02 | 0.7 |
| PPM1J (protein phosphatase, Mg2+/Mn2+ dependent 1J) | 1.1 | 0.86 | 0.78 |
| ILRUN | 0.83 | 0.65 | 0.78 |
| SSX4 (SSX family member 4) | 0.95 | 0.9 | 0.95 |
| GCLM (glutamate-cysteine ligase modifier subunit) | 1.1 | 1.01 | 0.92 |
| SCARF1 (scavenger receptor class F member 1) | 1 | 0.36 | 0.36 |
| STK38L (serine/threonine kinase 38 like) | 1.01 | 0.85 | 0.84 |
| FBXO33 (F-box protein 33) | 1 | 1.06 | 1.06 |
| ELL (elongation factor for RNA polymerase II) | 1.12 | 0.94 | 0.84 |
| NCF1 (neutrophil cytosolic factor 1) | 1.08 | 0.84 | 0.78 |
| IFT56 (intraflagellar transport 56) | 0.88 | 0.9 | 1.02 |
| RHEBL1 (RHEB like 1) | 0.93 | 0.67 | 0.72 |
| APP (amyloid beta precursor protein) | 0.96 | 0.9 | 0.94 |
| HMGN5 (high mobility group nucleosome binding domain 5) | 0.91 | 0.7 | 0.77 |
| PCDHGB4 (protocadherin gamma subfamily B, 4) | 1.05 | 0.84 | 0.8 |
| SAMD1 (sterile alpha motif domain containing 1) | 1.38 | 0.84 | 0.61 |
| ADAM9 (ADAM metallopeptidase domain 9) | 1.15 | 0.86 | 0.75 |
| PRR23B (proline rich 23B) | 1.04 | 0.87 | 0.84 |
| UXS1 (UDP-glucuronate decarboxylase 1) | 1.09 | 1.11 | 1.02 |
| NDUFC1 (NADH:ubiquinone oxidoreductase subunit C1) | 1.08 | 1.28 | 1.19 |
| LRRIQ4 (leucine rich repeats and IQ motif containing 4) | 0.83 | 0.52 | 0.63 |
| GOLGA3 (golgin A3) | 1.18 | 0.86 | 0.73 |
| TICAM1 (TIR domain containing adaptor molecule 1) | 0.96 | 0.9 | 0.94 |
| AP4S1 (adaptor related protein complex 4 subunit sigma 1) | 1.13 | 0.78 | 0.69 |
